According to patent US8299107B2, “Triazole compounds that modulate HSP90 activity” (Synta Pharmaceuticals Corporation, priority 2007, dated 2012):
Some entries share one result that the patent states for a list of compounds.

These compounds were tested on Hsp90 (assay: IC50 for Her2 degradation / inhibition of Hsp90 (Example 5 B, Method 2: MV-4-11 cell survival, Cell Counting Kit-8)). Settings: IC50 range, text: Her2 degradation, table title: inhibition of Hsp90, Method 2: MV-4-11 cells, 72 hours.
Assay type: cell-based, human

Row | SMILES | IC50 [nM]
1 | COc1ccc(CSc2nnc(-c3cc(C(C)C)c(O)cc3O)n2-c2ccc3c(ccn3C)c2)cc1 [Compound 1, 4-isopropyl-6-(5-(4-methoxybenzylthio)-4-(1-methyl-1H-indol-5-yl)-4H-1,2,4-triazol-3-yl)benzene-1,3-diol] | > 1000
2 | CC(C)c1cc(-c2n[nH]c(-c3ccncc3)n2)c(O)cc1O [Compound 16, 4-isopropyl-6-(5-(pyridin-4-yl)-1H-1,2,4-triazol-3-yl)benzene-1,3-diol] | > 1000
3 | CC(C)c1cc(-c2nnc(SCc3cccc(N)c3)n2-c2ccc3[nH]ccc3c2)c(O)cc1O [Compound 148, 4-(5-(3-aminobenzylthio)-4-(1H-indol-5-yl)-4H-1,2,4-triazol-3-yl)-6-isopropylbenzene-1,3-diol] | > 1000
4 | COC(=O)CCSc1nnc(-c2cc(C(C)C)c(O)cc2O)n1-c1ccc2c(ccn2C)c1 [Compound 122, methyl 3-(5-(2,4-dihydroxy-5-isopropylphenyl)-4-(1-methyl-1H-indol-5-yl)-4H-1,2,4-triazol-3-ylthio)propanoate] | > 1000
5 | CC(C)c1cc(-c2nnc(SCc3ccc(C(F)(F)F)cc3)n2-c2ccc3c(ccn3C)c2)c(O)cc1O [Compound 3, 4-isopropyl-6-(4-(1-methyl-1H-indol-5-yl)-5-(4-(trifluoromethyl)benzylthio)-4H-1,2,4-triazol-3-yl)benzene-1,3-diol] | > 1000
6 | CC(C)c1cc(-c2nnc(SCc3ccccn3)n2-c2ccc3c(ccn3C)c2)c(O)cc1O [Compound 8, 4-isopropyl-6-(4-(1-methyl-1H-indol-5-yl)-5-(pyridin-2-ylmethylthio)-4H-1,2,4-triazol-3-yl)benzene-1,3-diol] | > 1000
7 | CC(=O)Nc1ccccc1CSc1nnc(-c2cc(C(C)C)c(O)cc2O)n1-c1ccc2c(ccn2C)c1 [Compound 150, N-(2-((5-(2,4-dihydroxy-5-isopropylphenyl)-4-(1-methyl-1H-indol-5-yl)-4H-1,2,4-triazol-3-ylthio)methyl)phenyl)acetamide] | > 1000
8 | CC(C)c1cc(-c2nnc(SCc3cc(=O)[nH]c(=O)[nH]3)n2-c2ccc3c(ccn3C)c2)c(O)cc1O [Compound 4, 6-((5-(2,4-dihydroxy-5-isopropylphenyl)-4-(1-methyl-1H-indol-5-yl)-4H-1,2,4-triazol-3-ylthio)methyl)pyrimidine-2,4(1H,3H)-dione] | > 1000
9 | CC(C)c1cc(-c2nnc(SCc3cccc(NC(=O)OC(C)(C)C)c3)n2-c2ccc3c(ccn3C)c2)c(O)cc1O [Compound 147, tert-butyl 3-((5-(2,4-dihydroxy-5-isopropylphenyl)-4-(1-methyl-1H-indol-5-yl)-4H-1,2,4-triazol-3-ylthio)methyl)phenylcarbamate] | > 1000
10 | CC(C)c1cc(-c2nnc(SCC(N)=O)n2-c2ccc3c(ccn3C)c2)c(O)cc1O [Compound 6, 2-(5-(2,4-dihydroxy-5-isopropylphenyl)-4-(1-methyl-1H-indol-5-yl)-4H-1,2,4-triazol-3-ylthio)acetamide] | > 1000
11 | CC(C)c1cc(-c2nnc(SCc3c(F)cccc3F)n2-c2ccc3c(ccn3C)c2)c(O)cc1O [Compound 2, 4-(5-(2,6-difluorobenzylthio)-4-(1-methyl-1H-indol-5-yl)-4H-1,2,4-triazol-3-yl)-6-isopropylbenzene-1,3-diol] | > 1000
12 | CC(C)c1cc(-c2n[nH]c(-c3ccc(O)cc3)n2)c(O)cc1O [Compound 17, 4-(5-(4-hydroxyphenyl)-1H-1,2,4-triazol-3-yl)-6-isopropylbenzene-1,3-diol] | > 1000
13 | CC(C)c1cc(-c2nnc(SCc3ccccc3NC(=O)OC(C)(C)C)n2-c2ccc3c(ccn3C)c2)c(O)cc1O [Compound 145, tert-butyl 2-((5-(2,4-dihydroxy-5-isopropylphenyl)-4-(1-methyl-1H-indol-5-yl)-4H-1,2,4-triazol-3-ylthio)methyl)phenylcarbamate] | > 1000
14 | CC(C)c1cc(-c2nnc(CC(=O)O)n2-c2ccc3c(ccn3C)c2)c(O)cc1O [Compound 222, 2-(5-(2,4-dihydroxy-5-isopropylphenyl)-4-(1-methyl-1H-indol-5-yl)-4H-1,2,4-triazol-3-yl)acetic acid] | > 1000
15 | CCc1cc(-c2n[nH]c(SCc3csc(C)n3)n2)c(O)cc1O [Compound 19, 4-ethyl-6-(5-((2-methylthiazol-4-yl)methylthio)-1H-1,2,4-triazol-3-yl)benzene-1,3-diol] | > 1000
16 | CCc1cc(-c2n[nH]c(SCc3cccnc3)n2)c(O)cc1O [Compound 18, 4-ethyl-6-(5-(pyridin-3-ylmethylthio)-1H-1,2,4-triazol-3-yl)benzene-1,3-diol] | > 1000
17 | CC(C)c1cc(-c2nnc(SCCN)n2-c2ccc3c(ccn3C)c2)c(O)cc1O [Compound 158, 4-(5-(2-aminoethylthio)-4-(1-methyl-1H-indol-5-yl)-4H-1,2,4-triazol-3-yl)-6-isopropylbenzene-1,3-diol 2,2,2-trifluoroacetate] | > 1000
18 | COCc1ccc(Cn2c(SCc3cccnc3)nnc2-c2cc(C(C)C)c(O)cc2O)cc1 [Compound 13, 4-isopropyl-6-(4-(4-(methoxymethyl)benzyl)-5-(pyridin-3-ylmethylthio)-4H-1,2,4-triazol-3-yl)benzene-1,3-diol] | > 1000
19 | CC(C)c1cc(-c2nnc(SCc3ccc(C(F)(F)F)nc3)n2-c2ccc3c(ccn3C)c2)c(O)cc1O [Compound 12, 4-isopropyl-6-(4-(1-methyl-1H-indol-5-yl)-5-((6-(trifluoromethyl)pyridin-3-yl)methylthio)-4H-1,2,4-triazol-3-yl)benzene-1,3-diol] | > 1000
20 | CC(C)c1cc(-c2nnc(SC3CCOC3=O)n2-c2ccc3c(ccn3C)c2)c(O)cc1O (stereo not shown) [Compound 10, 3-(5-(2,4-dihydroxy-5-isopropylphenyl)-4-(1-methyl-1H-indol-5-yl)-4H-1,2,4-triazol-3-ylthio)dihydrofuran-2(3H)-one] | > 1000
21 | CC(C)c1cc(-c2nnc(SCc3cccnc3)n2-c2ccc(N3CCN(C)CC3)nc2)c(O)cc1O [Compound 102, 4-isopropyl-6-(4-(6-(4-methylpiperazin-1-yl)pyridin-3-yl)-5-(pyridin-3-ylmethylthio)-4H-1,2,4-triazol-3-yl)benzene-1,3-diol] | > 1000
22 | CC(C)c1cc(-c2nnc(Sc3ccccn3)n2-c2ccccc2)c(O)cc1O [Compound 155, 4-isopropyl-6-(4-phenyl-5-(pyridin-2-ylthio)-4H-1,2,4-triazol-3-yl)benzene-1,3-diol] | > 1000
23 | CC(=O)NCCSc1nnc(-c2cc(C(C)C)c(O)cc2O)n1-c1ccc2c(ccn2C)c1 [Compound 165, N-(2-(5-(2,4-dihydroxy-5-isopropylphenyl)-4-(1-methyl-1H-indol-5-yl)-4H-1,2,4-triazol-3-ylthio)ethyl)acetamide] | > 1000
24 | CC(C)c1cc(-c2nnc(SCc3cccnc3)n2-c2ccc(CN(C)C)cc2)c(O)cc1O [Compound 219, 4-(4-(4-((dimethylamino)methyl)phenyl)-5-(pyridin-3-ylmethylthio)-4H-1,2,4-triazol-3-yl)-6-isopropylbenzene-1,3-diol] | > 1000
25 | COCCN(C)c1ccc(-n2c(SCc3cscn3)nnc2-c2cc(C(C)C)c(O)cc2O)cn1 [Compound 109, 4-isopropyl-6-(4-(6-((2-methoxyethyl)(methyl)amino)pyridin-3-yl)-5-(thiazol-4-ylmethylthio)-4H-1,2,4-triazol-3-yl)benzene-1,3-diol] | > 1000
